One test addresses T1, Psm1-cYFP (S. pombe) (UniProt O94383).
T1 sequence: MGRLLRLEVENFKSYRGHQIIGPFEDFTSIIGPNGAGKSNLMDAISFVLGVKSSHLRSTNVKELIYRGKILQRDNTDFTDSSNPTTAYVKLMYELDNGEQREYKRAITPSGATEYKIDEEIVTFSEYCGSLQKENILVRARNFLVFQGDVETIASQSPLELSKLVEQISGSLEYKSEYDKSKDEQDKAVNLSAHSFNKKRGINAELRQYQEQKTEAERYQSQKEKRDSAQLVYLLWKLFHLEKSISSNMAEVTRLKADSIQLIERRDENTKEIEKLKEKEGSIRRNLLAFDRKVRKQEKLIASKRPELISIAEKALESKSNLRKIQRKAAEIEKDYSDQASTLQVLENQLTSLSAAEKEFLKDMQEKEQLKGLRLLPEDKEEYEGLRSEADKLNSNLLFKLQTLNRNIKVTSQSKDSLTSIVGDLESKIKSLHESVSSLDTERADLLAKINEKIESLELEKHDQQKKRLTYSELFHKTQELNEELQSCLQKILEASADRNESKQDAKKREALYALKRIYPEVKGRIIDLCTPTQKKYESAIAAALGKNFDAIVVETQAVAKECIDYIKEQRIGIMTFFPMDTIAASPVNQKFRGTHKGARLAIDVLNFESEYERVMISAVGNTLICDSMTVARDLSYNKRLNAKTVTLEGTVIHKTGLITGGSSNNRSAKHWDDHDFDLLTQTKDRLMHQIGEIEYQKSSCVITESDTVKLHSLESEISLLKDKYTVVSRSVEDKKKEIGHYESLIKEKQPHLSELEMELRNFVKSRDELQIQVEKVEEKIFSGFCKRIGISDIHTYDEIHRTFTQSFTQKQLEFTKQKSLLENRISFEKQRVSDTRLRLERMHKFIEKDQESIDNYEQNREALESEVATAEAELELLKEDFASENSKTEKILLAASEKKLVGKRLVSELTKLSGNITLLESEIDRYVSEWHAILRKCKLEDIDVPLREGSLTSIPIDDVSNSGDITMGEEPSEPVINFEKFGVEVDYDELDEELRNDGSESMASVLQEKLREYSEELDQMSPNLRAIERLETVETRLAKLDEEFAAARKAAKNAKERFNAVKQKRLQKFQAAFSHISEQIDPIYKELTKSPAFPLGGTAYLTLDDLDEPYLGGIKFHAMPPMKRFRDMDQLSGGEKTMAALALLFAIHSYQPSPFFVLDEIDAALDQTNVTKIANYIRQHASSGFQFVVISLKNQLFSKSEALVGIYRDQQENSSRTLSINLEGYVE
The test is described as follows: split reporter; Venus YFP halves fused to the C-termini of Rad21 and Psm1 at native loci; spinning-disk confocal microscopy of living S. pombe cells; also followed through mitosis, in cdc25-22, cut9-665 and cdc10-129 backgrounds, under nitrogen starvation and with hydroxyurea.

Another test concerns the target T2, Psm1-nYFP (S. pombe) (UniProt O94383).
T2 sequence: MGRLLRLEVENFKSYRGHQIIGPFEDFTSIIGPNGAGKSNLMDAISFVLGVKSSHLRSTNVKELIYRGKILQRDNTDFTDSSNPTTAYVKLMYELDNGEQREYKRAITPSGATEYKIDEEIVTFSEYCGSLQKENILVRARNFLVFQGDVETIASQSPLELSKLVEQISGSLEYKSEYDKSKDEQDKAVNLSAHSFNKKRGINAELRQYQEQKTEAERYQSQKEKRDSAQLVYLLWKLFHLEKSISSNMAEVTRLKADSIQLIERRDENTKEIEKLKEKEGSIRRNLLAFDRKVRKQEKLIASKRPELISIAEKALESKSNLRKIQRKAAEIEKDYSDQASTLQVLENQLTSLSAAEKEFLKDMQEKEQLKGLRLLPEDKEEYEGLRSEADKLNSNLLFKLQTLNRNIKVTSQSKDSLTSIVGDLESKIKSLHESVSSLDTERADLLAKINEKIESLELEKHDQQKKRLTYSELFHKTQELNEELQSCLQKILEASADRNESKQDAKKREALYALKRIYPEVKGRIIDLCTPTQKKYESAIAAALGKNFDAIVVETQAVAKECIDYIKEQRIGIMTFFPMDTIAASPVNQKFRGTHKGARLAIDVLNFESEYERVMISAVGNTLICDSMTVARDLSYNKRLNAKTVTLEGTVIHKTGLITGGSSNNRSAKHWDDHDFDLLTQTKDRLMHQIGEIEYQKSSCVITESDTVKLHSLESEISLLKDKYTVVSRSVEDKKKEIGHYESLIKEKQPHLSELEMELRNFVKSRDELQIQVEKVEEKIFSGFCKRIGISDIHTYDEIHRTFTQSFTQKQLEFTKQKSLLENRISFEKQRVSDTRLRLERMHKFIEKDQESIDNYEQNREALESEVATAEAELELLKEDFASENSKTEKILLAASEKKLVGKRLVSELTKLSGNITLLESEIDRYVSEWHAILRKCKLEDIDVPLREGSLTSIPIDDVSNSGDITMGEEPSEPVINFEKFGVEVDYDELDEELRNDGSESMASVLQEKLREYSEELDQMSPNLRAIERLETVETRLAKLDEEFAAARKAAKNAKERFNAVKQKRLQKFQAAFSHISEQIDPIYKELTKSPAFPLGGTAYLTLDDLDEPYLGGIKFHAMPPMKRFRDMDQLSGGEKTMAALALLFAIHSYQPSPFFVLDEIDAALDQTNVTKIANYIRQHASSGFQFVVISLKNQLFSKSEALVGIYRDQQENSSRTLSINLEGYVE
The description is as above.

No constants are given. Whether binding was seen depends on the method and setting. In cells and extracts the contact can be indirect. Some entries that bind do so weakly or less than the wild type. Sequences can lack the tags named with a protein.

B1: Rad21-nYFP (protein, UniProt P30776 1-628)
chain: MFYSEAILSKKGPLAKVWLAAHWEKKLSKVQTLHTSIEQSVHAIVTEETAPMALRLSGQLMLGVVRIYSRKARYLLEDCTEALMRLKMSFQPGQVDMIEPATALQSLKGKDAVTQSANLTLPETITEFDLLVPDSTFDFQWSQLLRTPSRSSNTLELHSLPISSSPSFPSSQLSIEAGRNAQVESGFSLGESFAHVGNDMQFHLPISNSGAATPRSVHSDNQSQISIEVGRDAPAAAATDLSGIIGPQMTKSPASSVTHFSTPSMLPIGGTSLDDELLAPVDDLNLDLGLDDLLGDEQGANAPAIEADEQAETSSIHLPSDIMEDDSSRPAAAGVEEGQVVESATAPQQEKINPQKTVRRQRAIIDPVTELSSKQMKKQLADTSSITSPLCLNTSSIVFNATVNFTRNGKFNTSIFSSNLNPKVNELLQADFKQAILRKRKNESPEEVEPAKHQRTDTSTENQETAEVLDPEEIAAAELANITEAAIATLPQETVVQPEGEAPELGSPMGFPVTALESADDSLFDAPPVMLDEADLLGSERLDSSVSEALPSSQTAKDSLRNKWDPYTEGEKVSFQTLSAGCNREEAVQLFFDVLVLATKDVISVKQDVAIQNEITLTAKRGMLLSSL
For the molecule B1, the binding entry in the test with Psm1-cYFP (S. pombe) is recorded as “binds”.

B2: Rad21-cYFP (protein, UniProt P30776 1-628)
chain: MFYSEAILSKKGPLAKVWLAAHWEKKLSKVQTLHTSIEQSVHAIVTEETAPMALRLSGQLMLGVVRIYSRKARYLLEDCTEALMRLKMSFQPGQVDMIEPATALQSLKGKDAVTQSANLTLPETITEFDLLVPDSTFDFQWSQLLRTPSRSSNTLELHSLPISSSPSFPSSQLSIEAGRNAQVESGFSLGESFAHVGNDMQFHLPISNSGAATPRSVHSDNQSQISIEVGRDAPAAAATDLSGIIGPQMTKSPASSVTHFSTPSMLPIGGTSLDDELLAPVDDLNLDLGLDDLLGDEQGANAPAIEADEQAETSSIHLPSDIMEDDSSRPAAAGVEEGQVVESATAPQQEKINPQKTVRRQRAIIDPVTELSSKQMKKQLADTSSITSPLCLNTSSIVFNATVNFTRNGKFNTSIFSSNLNPKVNELLQADFKQAILRKRKNESPEEVEPAKHQRTDTSTENQETAEVLDPEEIAAAELANITEAAIATLPQETVVQPEGEAPELGSPMGFPVTALESADDSLFDAPPVMLDEADLLGSERLDSSVSEALPSSQTAKDSLRNKWDPYTEGEKVSFQTLSAGCNREEAVQLFFDVLVLATKDVISVKQDVAIQNEITLTAKRGMLLSSL
With B2, the binding result with Psm1-nYFP (S. pombe) is on record as “binds”.
